{"source": "paper PMC8804925", "binders": {"B1": {"name": "respiratory syncytial virus matrix protein (M) (protein, UniProt P0DOE7 1-256)", "chain": "METYVNKLHEGSTYTAAVQYNVLEKDDDPASLTIWVPMFQSSMPADLLIKELANVNILVKQISTPKGPSLRVMINSRSAVLAQMPSKFTICANVSLDERSKLAYDVTTPCEIKACSLTCLKSKNMLTTVKDLTMKTLNPTHDIIALCEFENIVTSKKVIIPTYLRSISVRNKDLNTLENITTTEFKNAITNAKIIPYSGLLLVITVTDNKGAFKYIKPQSQFIVDLGAYLEKESIYYVTTNWKHTATRFAIKPMED"}}, "molecular_target": "respiratory syncytial virus matrix protein (M) (human respiratory syncytial virus (strain A2)) (UniProt P0DOE7)", "assay": "cryo-EM structure; cryo-ET with sub-tomogram averaging (Dynamo) of the envelope of filamentous RSV virions from infected A549 cells grown on the grid; 16 Å map of the matrix layer; X-ray structure of the M dimer fitted in Chimera/ChimeraX", "note": "These are yes or no findings as the source states them, for the method shown. Some entries that bind do so weakly or less than the wild type."}
{"binder": "B1", "values": [{"measurement": "binding", "result": "binds"}]}
